In article PMC2225445:
These are yes or no findings as the source states them, for the method shown. In cells and extracts the contact can be indirect. Some entries that bind do so weakly or less than the wild type.

The chains behind the UniProt entries cited, without tags or fusion partners.
UniProt O43918: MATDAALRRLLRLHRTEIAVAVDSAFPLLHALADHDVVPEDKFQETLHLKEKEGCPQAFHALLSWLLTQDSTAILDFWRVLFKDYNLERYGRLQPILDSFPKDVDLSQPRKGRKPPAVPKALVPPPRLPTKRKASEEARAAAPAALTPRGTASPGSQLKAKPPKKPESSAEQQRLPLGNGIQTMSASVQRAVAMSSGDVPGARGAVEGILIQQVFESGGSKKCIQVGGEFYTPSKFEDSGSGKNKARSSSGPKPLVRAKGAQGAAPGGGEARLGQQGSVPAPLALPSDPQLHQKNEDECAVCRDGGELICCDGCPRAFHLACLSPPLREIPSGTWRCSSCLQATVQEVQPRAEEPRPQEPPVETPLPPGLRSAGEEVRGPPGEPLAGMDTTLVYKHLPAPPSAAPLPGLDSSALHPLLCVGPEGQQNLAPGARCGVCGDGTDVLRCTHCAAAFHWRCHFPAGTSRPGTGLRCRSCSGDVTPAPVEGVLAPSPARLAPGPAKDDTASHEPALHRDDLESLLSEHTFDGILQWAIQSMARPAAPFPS
UniProt P78527: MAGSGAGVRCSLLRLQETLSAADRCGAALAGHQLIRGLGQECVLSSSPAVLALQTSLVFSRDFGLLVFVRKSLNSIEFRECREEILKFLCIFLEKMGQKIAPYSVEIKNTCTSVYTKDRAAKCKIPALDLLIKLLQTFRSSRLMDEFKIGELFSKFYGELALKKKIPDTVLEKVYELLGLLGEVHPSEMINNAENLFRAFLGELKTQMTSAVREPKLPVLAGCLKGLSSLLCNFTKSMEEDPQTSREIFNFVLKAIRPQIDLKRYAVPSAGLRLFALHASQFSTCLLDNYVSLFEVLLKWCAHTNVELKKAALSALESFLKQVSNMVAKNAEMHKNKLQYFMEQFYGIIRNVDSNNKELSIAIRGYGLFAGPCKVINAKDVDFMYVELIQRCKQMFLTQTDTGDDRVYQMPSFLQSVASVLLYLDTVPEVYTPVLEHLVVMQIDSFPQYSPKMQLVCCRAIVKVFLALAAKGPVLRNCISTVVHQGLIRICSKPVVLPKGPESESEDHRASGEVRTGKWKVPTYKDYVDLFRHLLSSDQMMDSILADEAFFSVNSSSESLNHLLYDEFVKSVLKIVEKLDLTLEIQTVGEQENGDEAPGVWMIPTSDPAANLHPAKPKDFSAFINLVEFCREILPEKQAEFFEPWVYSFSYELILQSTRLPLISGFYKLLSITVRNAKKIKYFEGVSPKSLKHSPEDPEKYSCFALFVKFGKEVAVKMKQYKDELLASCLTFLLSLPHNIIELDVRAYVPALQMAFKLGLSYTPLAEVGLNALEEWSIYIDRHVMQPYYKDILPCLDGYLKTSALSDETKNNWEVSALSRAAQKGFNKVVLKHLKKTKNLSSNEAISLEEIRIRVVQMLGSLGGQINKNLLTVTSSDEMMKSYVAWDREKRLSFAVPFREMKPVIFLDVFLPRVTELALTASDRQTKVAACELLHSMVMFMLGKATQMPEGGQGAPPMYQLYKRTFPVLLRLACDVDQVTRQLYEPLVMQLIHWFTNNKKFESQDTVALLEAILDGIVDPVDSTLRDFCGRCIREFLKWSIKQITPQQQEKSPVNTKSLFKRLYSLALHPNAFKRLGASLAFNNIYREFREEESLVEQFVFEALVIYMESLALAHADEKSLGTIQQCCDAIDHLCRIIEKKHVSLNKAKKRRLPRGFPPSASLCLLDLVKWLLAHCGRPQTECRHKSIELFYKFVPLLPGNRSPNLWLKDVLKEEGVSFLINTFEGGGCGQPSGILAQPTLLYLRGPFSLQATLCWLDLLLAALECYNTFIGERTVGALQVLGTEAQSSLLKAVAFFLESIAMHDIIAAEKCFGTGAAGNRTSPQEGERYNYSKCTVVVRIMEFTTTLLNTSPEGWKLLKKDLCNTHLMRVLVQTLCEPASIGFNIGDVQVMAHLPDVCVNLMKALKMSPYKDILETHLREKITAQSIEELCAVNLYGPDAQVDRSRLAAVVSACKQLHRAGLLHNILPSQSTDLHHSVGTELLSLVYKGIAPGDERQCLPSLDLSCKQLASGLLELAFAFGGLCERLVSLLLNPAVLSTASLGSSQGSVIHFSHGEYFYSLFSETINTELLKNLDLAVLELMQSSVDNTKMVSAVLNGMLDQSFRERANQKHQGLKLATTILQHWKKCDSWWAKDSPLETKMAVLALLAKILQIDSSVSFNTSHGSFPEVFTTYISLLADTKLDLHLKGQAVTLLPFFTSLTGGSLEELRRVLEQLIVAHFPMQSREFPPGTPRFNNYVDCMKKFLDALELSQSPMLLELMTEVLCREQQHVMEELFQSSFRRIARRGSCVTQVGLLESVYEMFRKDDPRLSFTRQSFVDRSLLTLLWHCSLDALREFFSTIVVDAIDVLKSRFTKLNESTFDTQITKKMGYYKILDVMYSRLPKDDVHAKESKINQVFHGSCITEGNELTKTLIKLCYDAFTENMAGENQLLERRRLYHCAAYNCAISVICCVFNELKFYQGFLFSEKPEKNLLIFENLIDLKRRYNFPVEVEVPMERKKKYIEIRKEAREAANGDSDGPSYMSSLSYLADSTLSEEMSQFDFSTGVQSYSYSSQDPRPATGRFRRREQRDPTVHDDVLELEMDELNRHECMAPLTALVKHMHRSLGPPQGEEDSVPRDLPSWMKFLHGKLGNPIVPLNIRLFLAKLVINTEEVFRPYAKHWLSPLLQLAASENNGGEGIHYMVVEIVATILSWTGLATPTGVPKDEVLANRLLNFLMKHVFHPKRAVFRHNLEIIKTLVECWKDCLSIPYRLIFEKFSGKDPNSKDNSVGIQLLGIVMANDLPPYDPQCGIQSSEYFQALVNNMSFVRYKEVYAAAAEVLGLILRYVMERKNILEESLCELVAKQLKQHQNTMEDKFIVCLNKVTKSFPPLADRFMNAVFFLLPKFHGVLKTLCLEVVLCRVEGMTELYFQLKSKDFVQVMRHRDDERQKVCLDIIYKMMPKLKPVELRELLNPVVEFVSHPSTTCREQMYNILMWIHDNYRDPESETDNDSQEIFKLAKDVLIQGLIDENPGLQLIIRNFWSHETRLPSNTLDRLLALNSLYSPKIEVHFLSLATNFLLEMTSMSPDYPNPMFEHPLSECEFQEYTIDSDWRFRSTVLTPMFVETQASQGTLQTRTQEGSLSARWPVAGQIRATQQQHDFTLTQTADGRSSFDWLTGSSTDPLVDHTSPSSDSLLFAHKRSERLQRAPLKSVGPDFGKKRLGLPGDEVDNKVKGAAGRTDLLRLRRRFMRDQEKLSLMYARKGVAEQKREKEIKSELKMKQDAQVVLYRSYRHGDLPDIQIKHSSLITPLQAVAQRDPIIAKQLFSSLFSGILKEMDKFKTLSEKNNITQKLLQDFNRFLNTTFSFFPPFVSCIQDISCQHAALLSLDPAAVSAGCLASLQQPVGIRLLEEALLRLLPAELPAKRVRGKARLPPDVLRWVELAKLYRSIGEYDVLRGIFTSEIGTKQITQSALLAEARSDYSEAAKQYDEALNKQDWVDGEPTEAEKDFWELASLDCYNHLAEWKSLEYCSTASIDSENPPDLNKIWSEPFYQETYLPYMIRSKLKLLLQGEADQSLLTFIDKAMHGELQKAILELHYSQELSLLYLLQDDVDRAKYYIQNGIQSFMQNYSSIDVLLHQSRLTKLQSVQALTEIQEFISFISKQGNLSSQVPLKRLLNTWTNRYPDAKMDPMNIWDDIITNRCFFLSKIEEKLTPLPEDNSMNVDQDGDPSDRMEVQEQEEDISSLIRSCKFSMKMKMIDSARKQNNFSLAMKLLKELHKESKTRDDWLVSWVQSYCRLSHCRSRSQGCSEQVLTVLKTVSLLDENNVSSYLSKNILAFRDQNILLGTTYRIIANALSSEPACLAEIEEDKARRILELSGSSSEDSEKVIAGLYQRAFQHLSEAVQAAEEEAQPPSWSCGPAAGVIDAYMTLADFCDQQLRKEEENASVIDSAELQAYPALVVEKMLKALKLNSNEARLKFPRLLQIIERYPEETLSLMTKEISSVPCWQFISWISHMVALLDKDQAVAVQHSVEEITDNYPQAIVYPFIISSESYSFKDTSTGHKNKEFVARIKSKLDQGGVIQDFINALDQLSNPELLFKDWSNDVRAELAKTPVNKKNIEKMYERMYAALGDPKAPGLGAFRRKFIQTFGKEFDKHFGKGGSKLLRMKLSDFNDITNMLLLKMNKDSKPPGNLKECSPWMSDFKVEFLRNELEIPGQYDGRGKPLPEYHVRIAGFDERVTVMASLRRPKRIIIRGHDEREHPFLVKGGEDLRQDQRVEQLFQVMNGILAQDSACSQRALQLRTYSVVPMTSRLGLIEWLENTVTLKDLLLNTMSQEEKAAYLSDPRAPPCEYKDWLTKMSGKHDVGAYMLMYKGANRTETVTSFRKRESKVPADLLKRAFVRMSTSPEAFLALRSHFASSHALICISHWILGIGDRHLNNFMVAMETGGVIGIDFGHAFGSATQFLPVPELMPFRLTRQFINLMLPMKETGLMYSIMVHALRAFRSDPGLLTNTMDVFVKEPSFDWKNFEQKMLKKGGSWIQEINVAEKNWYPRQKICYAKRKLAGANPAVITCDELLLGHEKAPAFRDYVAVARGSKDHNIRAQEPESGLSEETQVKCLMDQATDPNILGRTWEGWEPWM

Molecular target: full-length AIRE (autoimmune regulator), transfected in HEK293 (human) (UniProt O43918)
Assay: co-IP; whole-cell extracts of HEK293 transfected with AIRE; IP with anti-DNA-PK 4F10C5, anti-AIRE 6.1 or control antibodies, protein G-Sepharose, 0.3 M NaCl, 4 C; Western blot with anti-AIRE or anti-DNA-PK

## DNA-PK catalytic subunit (DNA-PKcs), HEK293 (from UniProt P78527 1-4128) (enzyme)
  binding: binds
